The test deals with T1, thioredoxin interacting protein (TXNIP) (rat (endogenous in brain tissue)) (UniProt Q5M7W1).
T1 sequence: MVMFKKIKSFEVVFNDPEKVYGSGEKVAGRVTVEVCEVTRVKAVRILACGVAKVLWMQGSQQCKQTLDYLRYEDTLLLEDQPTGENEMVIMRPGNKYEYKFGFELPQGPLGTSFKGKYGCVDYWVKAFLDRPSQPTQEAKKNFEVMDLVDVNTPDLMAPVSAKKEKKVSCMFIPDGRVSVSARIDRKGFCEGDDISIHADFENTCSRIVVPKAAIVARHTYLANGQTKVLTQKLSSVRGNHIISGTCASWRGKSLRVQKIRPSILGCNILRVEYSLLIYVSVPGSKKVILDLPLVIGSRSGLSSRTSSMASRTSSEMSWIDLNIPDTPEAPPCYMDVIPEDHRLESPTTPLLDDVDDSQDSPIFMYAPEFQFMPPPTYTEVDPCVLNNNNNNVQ
Briefly: co-IP; total protein of rat brain tissue (SAH rats, with or without EGb761 20 or 40 mg/kg pre-treatment) precipitated with anti-TXNIP antibody (1:200) at 4 °C overnight and protein A/G agarose; Western blot. (In general: A western blot detects proteins with antibodies after separation by electrophoresis.)

By UniProt entry, the sequences of proteins in these tests, tags left out.
UniProt D4A523: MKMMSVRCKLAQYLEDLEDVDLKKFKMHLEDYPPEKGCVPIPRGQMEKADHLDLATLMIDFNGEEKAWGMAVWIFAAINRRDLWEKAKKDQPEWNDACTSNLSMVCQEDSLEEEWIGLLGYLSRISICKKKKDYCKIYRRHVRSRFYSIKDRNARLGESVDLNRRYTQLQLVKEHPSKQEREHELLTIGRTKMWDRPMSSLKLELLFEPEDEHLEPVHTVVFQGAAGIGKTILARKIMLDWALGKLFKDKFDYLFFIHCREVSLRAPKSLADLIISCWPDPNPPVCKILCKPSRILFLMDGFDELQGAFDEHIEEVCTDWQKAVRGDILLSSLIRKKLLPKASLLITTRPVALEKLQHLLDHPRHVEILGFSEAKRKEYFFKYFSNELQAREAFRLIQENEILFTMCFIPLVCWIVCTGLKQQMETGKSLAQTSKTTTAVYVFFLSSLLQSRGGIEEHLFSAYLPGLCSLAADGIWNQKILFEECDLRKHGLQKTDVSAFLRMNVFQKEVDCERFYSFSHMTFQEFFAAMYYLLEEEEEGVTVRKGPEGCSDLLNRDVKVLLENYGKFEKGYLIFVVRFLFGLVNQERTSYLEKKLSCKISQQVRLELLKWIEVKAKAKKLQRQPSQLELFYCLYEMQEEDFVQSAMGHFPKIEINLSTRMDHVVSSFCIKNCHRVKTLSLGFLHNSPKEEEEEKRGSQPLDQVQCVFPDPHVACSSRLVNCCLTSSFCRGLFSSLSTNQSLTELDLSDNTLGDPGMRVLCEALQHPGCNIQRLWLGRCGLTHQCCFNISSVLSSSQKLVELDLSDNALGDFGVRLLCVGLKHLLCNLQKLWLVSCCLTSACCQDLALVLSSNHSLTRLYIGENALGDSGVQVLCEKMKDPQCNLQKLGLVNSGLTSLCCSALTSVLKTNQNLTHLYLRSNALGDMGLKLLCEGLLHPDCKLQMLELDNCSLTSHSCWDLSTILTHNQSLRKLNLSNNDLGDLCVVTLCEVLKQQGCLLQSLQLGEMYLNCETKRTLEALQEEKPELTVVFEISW

Results are given in words; binding and its absence hold for the method and conditions named. Binding seen in cells or lysates may run through a third protein. Some binding calls cover weakened binding; strength is not graded here.

For “NOD like receptors pyrin domain-containing 3 (NLRP3) (from UniProt D4A523 1-1035)”, the binding result was “binds”.

Values taken from publication PMC7585531.
